One substance from PMC8516944 can be followed below.

Results are given in words; binding and its absence hold for the method and conditions named. In cells and extracts the contact can be indirect. A result given as binding can be weak or reduced; the word gives no strength.

The experiment has as its target T1, AFP in the culture supernatant of HepG2 cells stably overexpressing GP73 (human (endogenous in HepG2)) (UniProt P02771).
T1 sequence: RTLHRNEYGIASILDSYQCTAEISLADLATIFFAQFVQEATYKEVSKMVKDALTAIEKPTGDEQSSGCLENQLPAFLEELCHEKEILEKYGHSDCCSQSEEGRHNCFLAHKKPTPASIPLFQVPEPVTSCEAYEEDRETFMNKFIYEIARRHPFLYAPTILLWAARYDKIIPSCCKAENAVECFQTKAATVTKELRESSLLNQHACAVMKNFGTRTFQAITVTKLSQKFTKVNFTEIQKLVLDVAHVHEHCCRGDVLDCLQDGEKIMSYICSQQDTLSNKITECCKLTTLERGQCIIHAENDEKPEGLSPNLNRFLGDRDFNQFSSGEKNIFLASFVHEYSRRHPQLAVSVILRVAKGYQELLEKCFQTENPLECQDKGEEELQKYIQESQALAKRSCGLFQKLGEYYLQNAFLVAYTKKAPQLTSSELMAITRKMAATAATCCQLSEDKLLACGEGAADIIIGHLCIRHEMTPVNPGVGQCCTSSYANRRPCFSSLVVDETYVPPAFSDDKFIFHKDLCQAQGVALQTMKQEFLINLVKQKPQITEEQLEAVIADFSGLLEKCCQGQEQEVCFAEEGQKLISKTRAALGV
Kind of experiment: co-IP; cell culture supernatant of HepG2 cells stably overexpressing GP73 (GP73-OE-SP).

Consider “GP73 in the culture supernatant of HepG2 cells stably overexpressing GP73 (GP73-OE-SP)”, for which the binding result is on record as “binds”.
